Test results as given in publication doi:10.1101/717041.
Like-named read-outs stand apart in the source and are kept apart here. These are yes or no findings as the source states them, for the method shown. A result given as binding can be weak or reduced; the word gives no strength. For some of these results: Tags and fused reporters may be left off the sequences shown. For some of these results: Binding seen in cells or lysates may run through a third protein. Each block holds one molecule with its values, some of them ahead of it.

By UniProt entry, the sequences of proteins in these tests, tags left out. Where a name states a change or a piece, a line headed by the entry shows the natural chain unless it says otherwise.
UniProt O75970: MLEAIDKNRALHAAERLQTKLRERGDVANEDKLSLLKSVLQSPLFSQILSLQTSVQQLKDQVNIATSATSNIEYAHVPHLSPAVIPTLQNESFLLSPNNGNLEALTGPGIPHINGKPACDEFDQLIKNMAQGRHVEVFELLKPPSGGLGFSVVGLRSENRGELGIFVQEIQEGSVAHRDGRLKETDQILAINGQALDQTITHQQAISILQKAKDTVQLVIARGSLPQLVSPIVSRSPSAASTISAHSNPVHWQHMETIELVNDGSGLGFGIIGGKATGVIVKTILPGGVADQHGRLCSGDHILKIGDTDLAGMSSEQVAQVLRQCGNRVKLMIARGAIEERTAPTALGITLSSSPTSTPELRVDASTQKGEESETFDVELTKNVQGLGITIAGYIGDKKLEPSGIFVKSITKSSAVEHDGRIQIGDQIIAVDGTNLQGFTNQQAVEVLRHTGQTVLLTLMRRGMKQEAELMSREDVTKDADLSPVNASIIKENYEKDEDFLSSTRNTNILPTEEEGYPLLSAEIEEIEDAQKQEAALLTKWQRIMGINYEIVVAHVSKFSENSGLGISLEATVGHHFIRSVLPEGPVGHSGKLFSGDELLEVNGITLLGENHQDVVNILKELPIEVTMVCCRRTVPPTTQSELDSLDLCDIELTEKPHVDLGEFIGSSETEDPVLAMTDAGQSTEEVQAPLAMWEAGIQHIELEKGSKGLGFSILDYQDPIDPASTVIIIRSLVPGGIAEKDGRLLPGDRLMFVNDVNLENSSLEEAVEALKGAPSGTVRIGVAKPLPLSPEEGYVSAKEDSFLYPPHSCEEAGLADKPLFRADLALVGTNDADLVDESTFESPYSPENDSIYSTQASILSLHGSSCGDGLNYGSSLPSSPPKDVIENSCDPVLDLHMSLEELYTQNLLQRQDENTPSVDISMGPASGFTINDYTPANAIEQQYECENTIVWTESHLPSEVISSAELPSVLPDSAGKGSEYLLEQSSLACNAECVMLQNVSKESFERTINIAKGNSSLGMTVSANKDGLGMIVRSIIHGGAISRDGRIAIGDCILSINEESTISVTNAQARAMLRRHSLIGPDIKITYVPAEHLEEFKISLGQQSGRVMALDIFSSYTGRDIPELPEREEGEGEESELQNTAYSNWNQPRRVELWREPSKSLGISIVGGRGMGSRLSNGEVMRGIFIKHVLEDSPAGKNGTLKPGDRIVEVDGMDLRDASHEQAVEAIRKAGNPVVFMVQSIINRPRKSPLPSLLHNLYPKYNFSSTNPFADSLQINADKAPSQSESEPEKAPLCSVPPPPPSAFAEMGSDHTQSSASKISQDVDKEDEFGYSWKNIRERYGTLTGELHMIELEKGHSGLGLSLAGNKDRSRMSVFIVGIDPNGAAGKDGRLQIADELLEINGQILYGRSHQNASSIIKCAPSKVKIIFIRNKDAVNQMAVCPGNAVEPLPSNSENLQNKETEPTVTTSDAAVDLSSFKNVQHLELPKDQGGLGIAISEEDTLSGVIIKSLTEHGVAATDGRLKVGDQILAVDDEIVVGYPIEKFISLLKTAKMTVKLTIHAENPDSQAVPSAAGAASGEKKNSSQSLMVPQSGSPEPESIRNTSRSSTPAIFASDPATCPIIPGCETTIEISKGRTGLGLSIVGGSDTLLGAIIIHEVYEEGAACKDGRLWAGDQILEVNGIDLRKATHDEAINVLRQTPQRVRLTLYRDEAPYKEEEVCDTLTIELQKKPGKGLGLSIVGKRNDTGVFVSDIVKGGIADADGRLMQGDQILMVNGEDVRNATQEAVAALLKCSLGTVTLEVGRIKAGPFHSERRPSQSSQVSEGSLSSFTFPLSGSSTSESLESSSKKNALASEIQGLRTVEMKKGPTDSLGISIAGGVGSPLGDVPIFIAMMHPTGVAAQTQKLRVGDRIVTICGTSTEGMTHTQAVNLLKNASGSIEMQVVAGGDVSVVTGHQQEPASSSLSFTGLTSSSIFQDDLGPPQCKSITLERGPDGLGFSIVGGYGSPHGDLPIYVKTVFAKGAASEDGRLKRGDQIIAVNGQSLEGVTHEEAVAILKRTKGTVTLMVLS

Key:
Assay in all cases: pull-down
[1] = target: GST-tagged third PDZ domain of mPDZ (UniProt O75970)
[2] = target: GST-tagged mPDZ PDZ domains (UniProt O75970)
[3] = target: GST-tagged mPDZ PDZ domains (UniProt O75970); remark: listed apart in the source

Molecule: myc-Daple Y2025F (from UniProt Q9P219 1-2028)
binding [1]: binds

Molecule: full length Daple-WT (myc-Daple) (from UniProt Q9P219 1-2028)
binding [2]: binds
binding [1]: binds

B1: His-Daple-CT (aa 1650 to 2028) (domain or fragment, UniProt Q9P219 1650-2028)
chain: GTAPPYVGVRPCSASPSSEMVTLEEFLEESNRSSPTHDTPSCRDDLLSDYFRKASDPPAIGGQPGPPAKKEGAKMPTNFVAPTVKMAAPTSEGRPLKPGQYVKPNFRLTEAEAPPSVAPRQAQPPQSLSLGRPRQAPVPPASHAPASRSASLSRAFSLASADLLRASGPEACKQESPQKLGAPEALGGRETGSHTLQSPAPPSSHSLARERTPLVGKAGSSCQGPGPRSRPLDTRRFSLAPPKEERLAPLHQSATAPAIATAGAGAAAAGSGSNSQLLHFSPAAAPAARTKPKAPPRSGEVATITPVRAGLSLSEGDGVPGQGCSEGLPAKSPGRSPDLAPHLGRALEDCSRGSVSKSSPASPEPGGDPQTVWYEYGCV
binding [3]: binds

Continued, values first:

binding [1]: binds
Molecule: full length Daple-E2024K (from UniProt Q9P219 1-2028)

binding [1]: binds
Molecule: myc-Daple Y2025E (from UniProt Q9P219 1-2028)

binding [1]: binds
Molecule: full length Daple-E2024A (from UniProt Q9P219 1-2028)
